# Assay results taken from publication PMC11378411.
# By UniProt entry, the sequences of proteins in these tests, tags left out.
# UniProt O08586: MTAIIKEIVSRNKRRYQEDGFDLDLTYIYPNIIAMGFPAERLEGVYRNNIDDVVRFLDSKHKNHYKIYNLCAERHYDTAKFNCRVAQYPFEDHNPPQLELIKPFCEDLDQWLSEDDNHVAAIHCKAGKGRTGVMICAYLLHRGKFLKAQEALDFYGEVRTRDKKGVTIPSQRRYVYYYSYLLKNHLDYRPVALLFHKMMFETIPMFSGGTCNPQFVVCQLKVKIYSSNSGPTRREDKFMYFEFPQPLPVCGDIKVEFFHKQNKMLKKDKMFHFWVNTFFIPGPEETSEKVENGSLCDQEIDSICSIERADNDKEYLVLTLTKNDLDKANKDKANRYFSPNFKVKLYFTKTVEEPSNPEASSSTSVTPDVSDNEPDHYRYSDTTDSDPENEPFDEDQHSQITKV
# UniProt P45481: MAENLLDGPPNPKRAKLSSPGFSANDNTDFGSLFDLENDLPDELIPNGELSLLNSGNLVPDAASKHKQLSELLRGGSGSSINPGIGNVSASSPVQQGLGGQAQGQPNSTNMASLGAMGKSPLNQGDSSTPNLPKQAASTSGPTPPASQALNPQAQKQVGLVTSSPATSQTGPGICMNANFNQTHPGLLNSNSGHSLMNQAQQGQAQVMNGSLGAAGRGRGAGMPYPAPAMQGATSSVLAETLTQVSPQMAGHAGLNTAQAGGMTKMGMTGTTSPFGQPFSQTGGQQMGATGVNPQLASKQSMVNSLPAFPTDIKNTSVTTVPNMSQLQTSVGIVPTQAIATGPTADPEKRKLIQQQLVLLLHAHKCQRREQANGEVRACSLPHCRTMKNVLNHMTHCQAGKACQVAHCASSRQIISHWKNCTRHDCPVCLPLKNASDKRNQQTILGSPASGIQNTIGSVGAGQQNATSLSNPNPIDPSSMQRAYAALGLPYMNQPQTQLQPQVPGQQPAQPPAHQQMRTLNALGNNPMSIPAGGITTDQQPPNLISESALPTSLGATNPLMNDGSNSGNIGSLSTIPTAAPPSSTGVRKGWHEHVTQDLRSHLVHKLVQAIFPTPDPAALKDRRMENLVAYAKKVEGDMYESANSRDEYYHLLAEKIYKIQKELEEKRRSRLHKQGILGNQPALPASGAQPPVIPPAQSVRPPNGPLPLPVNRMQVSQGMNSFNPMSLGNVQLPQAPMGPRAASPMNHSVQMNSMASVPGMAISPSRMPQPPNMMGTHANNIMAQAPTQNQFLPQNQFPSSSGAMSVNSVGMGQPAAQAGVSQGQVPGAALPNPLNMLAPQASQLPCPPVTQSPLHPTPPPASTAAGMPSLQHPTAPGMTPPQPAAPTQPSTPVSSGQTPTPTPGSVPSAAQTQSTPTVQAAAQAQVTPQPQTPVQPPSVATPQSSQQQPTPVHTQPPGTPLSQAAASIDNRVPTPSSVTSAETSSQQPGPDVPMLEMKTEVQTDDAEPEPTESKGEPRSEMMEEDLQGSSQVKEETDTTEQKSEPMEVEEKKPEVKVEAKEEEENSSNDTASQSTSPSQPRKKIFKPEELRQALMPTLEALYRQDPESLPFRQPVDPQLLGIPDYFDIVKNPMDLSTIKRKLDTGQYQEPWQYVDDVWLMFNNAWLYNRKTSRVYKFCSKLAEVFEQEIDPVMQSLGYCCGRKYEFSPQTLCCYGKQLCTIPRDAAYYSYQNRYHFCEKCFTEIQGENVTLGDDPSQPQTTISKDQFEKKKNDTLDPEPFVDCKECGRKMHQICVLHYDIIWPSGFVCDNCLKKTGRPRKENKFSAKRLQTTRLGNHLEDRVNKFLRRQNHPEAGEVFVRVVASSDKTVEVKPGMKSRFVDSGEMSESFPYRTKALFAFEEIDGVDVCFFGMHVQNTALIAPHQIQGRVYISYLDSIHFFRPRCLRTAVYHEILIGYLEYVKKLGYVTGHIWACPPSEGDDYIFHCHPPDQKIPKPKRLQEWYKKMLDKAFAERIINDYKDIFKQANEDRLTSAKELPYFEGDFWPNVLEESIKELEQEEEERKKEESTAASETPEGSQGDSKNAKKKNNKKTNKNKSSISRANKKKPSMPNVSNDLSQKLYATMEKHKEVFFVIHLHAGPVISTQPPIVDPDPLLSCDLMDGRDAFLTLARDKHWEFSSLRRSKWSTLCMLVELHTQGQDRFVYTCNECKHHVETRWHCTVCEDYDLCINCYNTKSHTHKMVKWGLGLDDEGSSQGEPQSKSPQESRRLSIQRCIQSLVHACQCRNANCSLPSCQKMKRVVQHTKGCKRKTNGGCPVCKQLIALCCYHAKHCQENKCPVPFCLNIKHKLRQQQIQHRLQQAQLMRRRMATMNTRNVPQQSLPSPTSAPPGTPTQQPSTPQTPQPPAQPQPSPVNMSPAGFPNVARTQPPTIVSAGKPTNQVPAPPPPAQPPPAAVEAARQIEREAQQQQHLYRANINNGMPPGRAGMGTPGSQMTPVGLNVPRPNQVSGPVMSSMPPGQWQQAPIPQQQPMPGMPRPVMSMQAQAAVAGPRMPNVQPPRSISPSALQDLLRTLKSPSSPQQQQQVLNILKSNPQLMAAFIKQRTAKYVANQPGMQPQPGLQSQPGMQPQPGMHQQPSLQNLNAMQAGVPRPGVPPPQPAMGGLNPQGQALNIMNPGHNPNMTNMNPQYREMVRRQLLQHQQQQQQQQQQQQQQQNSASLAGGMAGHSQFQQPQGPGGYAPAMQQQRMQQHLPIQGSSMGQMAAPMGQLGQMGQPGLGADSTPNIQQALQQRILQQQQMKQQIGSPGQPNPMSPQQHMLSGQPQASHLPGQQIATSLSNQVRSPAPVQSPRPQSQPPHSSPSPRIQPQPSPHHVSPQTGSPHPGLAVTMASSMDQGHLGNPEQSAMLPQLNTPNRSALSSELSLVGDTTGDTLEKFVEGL
# UniProt P46935: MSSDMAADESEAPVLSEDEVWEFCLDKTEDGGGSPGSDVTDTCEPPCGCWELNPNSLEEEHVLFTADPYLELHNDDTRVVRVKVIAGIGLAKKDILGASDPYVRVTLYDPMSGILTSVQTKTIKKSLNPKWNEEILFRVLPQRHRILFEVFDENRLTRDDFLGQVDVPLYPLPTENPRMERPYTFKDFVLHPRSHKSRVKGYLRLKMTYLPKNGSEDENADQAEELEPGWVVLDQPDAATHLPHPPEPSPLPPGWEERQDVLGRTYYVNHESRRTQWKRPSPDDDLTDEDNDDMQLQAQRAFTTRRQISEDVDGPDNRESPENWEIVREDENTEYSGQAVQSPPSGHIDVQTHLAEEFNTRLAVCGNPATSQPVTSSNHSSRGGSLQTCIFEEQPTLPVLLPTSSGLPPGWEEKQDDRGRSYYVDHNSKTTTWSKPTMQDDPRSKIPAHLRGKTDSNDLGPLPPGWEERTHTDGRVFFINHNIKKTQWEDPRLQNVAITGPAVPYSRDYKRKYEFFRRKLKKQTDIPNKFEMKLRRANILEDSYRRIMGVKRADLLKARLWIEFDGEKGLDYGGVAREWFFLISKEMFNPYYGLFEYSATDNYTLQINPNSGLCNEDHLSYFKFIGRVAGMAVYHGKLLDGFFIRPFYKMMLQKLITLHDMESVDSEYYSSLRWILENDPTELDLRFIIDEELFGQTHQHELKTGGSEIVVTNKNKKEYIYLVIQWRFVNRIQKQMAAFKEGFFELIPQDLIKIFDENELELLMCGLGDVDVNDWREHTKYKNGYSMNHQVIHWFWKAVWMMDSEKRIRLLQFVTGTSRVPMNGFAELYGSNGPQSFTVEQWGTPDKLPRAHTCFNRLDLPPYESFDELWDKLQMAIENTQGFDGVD
# UniProt Q9DBH0: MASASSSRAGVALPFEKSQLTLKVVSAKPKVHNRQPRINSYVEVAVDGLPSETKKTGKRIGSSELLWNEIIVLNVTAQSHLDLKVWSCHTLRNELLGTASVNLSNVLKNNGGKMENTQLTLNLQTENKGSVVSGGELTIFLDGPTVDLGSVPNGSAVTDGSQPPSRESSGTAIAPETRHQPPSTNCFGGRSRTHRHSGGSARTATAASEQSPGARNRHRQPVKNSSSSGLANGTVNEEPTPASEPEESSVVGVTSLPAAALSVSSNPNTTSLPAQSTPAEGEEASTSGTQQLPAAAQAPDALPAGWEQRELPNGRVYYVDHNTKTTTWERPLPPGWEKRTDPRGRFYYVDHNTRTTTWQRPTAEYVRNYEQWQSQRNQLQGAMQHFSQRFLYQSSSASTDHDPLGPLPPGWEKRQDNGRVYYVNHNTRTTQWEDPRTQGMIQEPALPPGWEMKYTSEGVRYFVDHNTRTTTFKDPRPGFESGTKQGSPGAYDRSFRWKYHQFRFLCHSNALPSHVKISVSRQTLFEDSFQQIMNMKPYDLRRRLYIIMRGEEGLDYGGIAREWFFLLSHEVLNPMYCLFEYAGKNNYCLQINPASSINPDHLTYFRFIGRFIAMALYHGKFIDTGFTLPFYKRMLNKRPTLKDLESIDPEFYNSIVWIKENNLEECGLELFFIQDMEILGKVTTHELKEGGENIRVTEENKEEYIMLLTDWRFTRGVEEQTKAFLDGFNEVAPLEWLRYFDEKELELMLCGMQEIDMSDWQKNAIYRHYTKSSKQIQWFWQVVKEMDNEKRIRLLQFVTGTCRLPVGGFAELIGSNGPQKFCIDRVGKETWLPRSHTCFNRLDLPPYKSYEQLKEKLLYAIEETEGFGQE
# Results are given in words; binding and its absence hold for the method and conditions named. Binding seen in cells or lysates may run through a third protein. Some entries that bind do so weakly or less than the wild type.
# Experiments:
# [1] = biological target: T1, Staphylococcal nuclease and Tudor domain-containing 1 (Tudor-SN) (mouse (endogenous in MASMCs)) (UniProt Q78PY7); assay: co-IP; endogenous proteins in lysates of wild-type MASMCs (Fig. 5B, 6F), also of TSN^WT and TSN^smcKO MASMCs (Fig. 6H); specific antibodies or IgG at 4 °C overnight, protein A/G magnetic beads 2 h; washed 6 times in 150 mmol/L NaCl, 20 mmol/L Tris-HCl pH 7.5, 5% glycerol, 1 mmol/L MgCl2, 1 mmol/L EDTA; immunoblot
# T1 sequence: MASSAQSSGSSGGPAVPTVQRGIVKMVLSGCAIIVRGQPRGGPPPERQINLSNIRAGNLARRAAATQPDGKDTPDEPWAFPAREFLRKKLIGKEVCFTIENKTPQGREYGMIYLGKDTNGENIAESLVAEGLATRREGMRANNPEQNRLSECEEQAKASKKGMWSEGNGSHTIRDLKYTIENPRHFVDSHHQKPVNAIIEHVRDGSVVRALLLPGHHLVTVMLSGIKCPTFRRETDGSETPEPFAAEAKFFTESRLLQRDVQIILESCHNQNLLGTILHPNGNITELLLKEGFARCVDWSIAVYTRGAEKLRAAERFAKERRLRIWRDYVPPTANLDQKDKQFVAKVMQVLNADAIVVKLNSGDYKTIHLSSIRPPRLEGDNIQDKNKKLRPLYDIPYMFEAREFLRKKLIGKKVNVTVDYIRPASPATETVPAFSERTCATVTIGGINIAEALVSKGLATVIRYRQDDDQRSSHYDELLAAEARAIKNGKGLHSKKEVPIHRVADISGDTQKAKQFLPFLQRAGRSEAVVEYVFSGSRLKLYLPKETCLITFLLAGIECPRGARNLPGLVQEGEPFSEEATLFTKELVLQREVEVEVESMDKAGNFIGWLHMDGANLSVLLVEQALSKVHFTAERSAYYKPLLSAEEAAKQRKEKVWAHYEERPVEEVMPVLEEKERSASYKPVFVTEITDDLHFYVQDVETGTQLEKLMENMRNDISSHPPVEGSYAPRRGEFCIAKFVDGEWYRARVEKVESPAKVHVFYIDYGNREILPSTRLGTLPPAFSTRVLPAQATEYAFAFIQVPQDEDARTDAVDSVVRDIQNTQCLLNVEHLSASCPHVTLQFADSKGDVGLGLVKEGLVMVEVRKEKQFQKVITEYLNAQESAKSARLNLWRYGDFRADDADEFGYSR
# [2] = biological target: PTEN (mouse (endogenous in MASMCs)) (UniProt O08586); assay: as above
Substance,binding [1],binding [2]
CREBBP (from UniProt P45481 1-2441),binds,–
NEDD4-1 (from UniProt P46935 1-887) (enzyme),binds,binds
PTEN (from UniProt O08586 1-403),binds,–
WWP2 (from UniProt Q9DBH0 1-870) (enzyme),binds,binds
